The list shows a part of the results.

Chains of the proteins cited; added tags and fusions are not shown. Lines headed by an entry give the natural chain unless they say otherwise; changes in a name come on top.
UniProt Q9BUL8: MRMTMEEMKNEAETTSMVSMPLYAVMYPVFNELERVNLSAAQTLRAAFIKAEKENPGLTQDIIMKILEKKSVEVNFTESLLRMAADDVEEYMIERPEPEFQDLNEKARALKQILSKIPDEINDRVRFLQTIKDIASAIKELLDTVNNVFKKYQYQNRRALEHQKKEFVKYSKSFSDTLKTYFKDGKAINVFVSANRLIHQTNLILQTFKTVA
UniProt Q6ZW49, whole entry, looked up: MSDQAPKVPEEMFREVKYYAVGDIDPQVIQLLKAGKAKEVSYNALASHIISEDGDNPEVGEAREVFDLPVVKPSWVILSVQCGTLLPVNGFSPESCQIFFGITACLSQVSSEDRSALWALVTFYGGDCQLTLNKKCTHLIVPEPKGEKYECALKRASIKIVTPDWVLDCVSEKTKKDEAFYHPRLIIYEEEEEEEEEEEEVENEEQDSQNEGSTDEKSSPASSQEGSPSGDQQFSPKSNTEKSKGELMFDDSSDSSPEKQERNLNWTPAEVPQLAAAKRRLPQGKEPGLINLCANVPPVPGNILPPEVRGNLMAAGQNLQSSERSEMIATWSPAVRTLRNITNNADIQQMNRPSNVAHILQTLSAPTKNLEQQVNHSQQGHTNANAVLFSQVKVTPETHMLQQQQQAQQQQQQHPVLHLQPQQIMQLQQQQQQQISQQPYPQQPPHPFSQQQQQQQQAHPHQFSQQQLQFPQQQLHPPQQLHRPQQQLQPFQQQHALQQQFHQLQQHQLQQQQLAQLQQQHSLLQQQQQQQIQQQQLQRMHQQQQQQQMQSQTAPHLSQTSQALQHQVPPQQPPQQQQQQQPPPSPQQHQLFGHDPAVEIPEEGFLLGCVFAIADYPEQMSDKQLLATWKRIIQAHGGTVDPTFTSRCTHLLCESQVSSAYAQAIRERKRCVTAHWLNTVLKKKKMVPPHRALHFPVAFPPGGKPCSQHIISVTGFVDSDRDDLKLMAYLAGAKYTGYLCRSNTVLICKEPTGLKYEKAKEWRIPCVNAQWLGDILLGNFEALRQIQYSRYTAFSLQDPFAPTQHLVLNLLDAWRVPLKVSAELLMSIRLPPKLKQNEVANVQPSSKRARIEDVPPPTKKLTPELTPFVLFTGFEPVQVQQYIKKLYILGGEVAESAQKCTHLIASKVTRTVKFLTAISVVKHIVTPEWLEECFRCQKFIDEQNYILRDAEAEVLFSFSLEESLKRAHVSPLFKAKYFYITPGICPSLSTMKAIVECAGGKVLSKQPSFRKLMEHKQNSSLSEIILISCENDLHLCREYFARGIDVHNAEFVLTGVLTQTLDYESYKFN
UniProt Q96GD0: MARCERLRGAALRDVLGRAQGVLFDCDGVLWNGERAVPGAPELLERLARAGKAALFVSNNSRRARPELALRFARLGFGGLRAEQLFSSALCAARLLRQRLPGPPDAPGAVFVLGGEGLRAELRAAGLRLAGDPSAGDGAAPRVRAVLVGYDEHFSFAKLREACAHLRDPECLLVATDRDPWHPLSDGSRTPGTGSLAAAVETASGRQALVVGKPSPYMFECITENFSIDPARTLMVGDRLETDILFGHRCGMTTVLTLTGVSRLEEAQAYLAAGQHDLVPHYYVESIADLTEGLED
UniProt O75381, whole entry, looked up: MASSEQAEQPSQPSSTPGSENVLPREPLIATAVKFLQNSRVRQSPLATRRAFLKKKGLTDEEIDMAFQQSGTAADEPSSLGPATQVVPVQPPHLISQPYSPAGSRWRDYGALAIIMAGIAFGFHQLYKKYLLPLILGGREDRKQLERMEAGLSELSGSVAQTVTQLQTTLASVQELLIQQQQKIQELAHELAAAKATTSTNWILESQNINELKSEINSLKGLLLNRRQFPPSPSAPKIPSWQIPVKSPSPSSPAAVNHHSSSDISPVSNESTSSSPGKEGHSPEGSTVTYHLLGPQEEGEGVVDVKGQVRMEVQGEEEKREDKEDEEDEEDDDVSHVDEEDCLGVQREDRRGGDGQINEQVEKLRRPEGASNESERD
UniProt Q5JVF3: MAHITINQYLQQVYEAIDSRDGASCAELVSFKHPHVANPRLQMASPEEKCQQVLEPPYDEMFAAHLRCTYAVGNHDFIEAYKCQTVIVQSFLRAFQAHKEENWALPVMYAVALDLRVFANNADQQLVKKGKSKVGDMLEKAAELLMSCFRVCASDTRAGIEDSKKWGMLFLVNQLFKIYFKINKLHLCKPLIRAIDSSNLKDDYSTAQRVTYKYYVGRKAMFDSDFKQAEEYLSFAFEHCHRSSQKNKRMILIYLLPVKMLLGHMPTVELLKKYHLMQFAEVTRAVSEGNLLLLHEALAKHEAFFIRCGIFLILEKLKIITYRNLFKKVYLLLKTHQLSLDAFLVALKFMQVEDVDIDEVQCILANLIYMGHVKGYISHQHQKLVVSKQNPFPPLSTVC
UniProt Q9NV79: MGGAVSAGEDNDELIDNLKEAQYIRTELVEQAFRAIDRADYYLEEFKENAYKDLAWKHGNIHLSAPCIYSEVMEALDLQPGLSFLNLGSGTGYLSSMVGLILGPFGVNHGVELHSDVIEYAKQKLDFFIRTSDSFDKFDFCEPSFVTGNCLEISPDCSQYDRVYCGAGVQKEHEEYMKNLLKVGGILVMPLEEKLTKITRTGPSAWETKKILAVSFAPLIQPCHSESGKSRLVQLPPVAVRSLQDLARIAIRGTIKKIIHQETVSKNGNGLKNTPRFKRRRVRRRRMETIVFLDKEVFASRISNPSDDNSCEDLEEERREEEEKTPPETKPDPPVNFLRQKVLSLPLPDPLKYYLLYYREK
UniProt Q9NQP4, whole entry, looked up: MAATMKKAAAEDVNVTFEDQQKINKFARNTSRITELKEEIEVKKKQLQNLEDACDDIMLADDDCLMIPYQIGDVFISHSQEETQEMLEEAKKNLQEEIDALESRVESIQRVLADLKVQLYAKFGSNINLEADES
UniProt O15055: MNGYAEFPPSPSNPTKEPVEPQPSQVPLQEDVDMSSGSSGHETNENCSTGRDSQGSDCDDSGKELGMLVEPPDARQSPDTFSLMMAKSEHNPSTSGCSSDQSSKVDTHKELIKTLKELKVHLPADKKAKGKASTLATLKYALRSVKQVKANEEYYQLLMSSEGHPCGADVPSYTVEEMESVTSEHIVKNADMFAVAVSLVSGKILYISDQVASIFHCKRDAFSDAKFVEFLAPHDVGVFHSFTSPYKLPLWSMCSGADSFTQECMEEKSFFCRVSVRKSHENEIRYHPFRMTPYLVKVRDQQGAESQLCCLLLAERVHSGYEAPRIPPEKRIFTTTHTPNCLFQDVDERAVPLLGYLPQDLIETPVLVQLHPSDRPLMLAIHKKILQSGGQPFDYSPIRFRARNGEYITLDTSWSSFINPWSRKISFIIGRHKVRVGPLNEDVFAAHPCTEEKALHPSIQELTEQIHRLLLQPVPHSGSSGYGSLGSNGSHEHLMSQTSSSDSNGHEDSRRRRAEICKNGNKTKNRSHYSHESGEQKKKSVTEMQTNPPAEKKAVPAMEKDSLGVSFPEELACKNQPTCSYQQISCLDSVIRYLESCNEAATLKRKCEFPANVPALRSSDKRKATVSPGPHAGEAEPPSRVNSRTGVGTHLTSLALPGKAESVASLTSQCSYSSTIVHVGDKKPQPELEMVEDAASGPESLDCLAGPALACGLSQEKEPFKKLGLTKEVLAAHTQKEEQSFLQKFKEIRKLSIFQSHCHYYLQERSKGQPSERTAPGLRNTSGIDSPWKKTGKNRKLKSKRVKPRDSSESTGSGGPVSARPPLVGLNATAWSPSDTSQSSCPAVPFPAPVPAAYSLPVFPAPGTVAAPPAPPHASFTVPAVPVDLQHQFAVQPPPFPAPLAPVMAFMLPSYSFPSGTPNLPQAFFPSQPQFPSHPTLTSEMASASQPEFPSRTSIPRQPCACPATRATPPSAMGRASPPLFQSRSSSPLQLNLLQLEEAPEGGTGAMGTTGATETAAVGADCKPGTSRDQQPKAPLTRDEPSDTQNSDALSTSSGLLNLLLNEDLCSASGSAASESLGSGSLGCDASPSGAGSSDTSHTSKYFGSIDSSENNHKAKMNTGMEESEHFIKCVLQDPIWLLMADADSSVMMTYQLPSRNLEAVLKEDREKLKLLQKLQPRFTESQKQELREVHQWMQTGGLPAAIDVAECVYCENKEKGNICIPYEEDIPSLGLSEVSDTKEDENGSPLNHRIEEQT
UniProt Q9UHV9, whole entry, looked up: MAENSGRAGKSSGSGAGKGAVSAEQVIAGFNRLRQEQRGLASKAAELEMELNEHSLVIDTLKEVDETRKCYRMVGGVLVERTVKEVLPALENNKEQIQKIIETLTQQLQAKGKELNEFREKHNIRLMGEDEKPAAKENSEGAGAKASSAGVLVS
UniProt P30086: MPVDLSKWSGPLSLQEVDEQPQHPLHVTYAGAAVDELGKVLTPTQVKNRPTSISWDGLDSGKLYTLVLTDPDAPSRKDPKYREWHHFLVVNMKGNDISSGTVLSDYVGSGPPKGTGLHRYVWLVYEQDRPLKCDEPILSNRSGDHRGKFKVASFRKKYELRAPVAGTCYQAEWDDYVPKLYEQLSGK
UniProt Q9H0N5: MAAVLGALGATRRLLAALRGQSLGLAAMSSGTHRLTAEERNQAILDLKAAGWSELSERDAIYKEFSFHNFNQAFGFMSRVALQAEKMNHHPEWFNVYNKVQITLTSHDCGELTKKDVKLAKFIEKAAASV
UniProt P28328: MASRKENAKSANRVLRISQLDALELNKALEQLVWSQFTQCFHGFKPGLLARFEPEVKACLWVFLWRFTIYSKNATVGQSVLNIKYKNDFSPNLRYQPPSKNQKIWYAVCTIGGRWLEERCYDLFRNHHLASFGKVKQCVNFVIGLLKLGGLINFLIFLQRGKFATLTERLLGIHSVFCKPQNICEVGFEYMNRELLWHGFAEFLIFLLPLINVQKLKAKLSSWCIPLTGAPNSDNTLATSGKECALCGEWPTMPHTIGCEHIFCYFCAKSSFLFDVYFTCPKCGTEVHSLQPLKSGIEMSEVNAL
UniProt O60658: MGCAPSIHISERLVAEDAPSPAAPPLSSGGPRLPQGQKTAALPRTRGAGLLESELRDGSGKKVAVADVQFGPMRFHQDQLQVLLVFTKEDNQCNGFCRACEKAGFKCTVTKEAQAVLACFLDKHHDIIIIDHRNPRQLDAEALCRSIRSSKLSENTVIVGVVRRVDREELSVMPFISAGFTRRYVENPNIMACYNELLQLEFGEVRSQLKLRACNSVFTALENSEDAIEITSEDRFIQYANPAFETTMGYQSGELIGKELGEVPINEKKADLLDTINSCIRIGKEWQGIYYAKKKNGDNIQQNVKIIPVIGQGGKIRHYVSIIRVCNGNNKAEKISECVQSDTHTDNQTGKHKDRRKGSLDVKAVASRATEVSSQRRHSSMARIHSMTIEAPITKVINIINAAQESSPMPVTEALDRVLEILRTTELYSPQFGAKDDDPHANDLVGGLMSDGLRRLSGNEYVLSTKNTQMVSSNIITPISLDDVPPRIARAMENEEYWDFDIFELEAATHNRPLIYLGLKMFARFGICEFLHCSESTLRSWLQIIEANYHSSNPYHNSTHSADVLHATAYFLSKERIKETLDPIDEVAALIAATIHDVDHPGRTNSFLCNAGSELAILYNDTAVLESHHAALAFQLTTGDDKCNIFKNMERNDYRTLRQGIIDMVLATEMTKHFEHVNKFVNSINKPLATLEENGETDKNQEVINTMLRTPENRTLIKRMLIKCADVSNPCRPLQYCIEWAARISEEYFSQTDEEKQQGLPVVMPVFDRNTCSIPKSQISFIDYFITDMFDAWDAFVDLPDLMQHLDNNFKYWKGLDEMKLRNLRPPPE
UniProt P35558, whole entry, looked up: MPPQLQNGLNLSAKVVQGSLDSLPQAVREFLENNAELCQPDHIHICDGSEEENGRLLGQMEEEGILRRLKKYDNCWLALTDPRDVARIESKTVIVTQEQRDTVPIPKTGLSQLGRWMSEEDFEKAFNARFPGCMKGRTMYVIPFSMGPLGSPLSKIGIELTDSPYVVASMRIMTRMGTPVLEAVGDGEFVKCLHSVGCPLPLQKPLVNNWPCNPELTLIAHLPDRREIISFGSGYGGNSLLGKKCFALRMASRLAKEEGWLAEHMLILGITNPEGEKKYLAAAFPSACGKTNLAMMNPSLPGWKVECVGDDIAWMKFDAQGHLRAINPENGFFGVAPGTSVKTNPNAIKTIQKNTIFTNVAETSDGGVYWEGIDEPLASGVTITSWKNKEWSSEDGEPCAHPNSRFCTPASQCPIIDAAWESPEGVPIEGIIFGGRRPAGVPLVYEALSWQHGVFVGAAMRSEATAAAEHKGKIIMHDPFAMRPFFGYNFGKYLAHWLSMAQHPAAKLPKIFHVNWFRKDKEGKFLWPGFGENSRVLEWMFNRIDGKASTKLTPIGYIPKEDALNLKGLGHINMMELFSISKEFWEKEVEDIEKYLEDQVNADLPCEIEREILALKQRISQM
UniProt Q8N0Y7: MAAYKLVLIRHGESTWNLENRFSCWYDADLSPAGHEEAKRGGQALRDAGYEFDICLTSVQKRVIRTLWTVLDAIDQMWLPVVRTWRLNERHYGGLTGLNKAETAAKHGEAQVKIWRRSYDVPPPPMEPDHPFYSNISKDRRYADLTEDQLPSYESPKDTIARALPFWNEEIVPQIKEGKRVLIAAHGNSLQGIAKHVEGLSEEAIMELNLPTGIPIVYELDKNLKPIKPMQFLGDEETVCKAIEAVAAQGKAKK

What all share (assay): log2 fold change, soluble protein after heating vs DMSO (PISA); higher = thermal stabilisation; K562 lysate, 10 uM; active = over 0.2 and 3.5 SD of the protein, either way, in both replicates (recomputed)
Compound in assay [1]: NCC(=O)Nc1ccc(-n2nc(C(F)(F)F)cc2-c2ccc3c(ccc4ccccc43)c2)cc1
In outline:
(§1)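 A 30 min treatment with 10 μM compound was applied to crude K562 extract at 1 mg/mL protein in PBS pH 7.4 with 1 mM MgCl2. Heating for 3 min spanned 48°C-58°C, after which aliquots were pooled, adjusted to 0.5% NP-40 at 4°C and spun at 21,000xg for 90 min. TMTpro 16plex LC-MS/MS of the supernatant, with channel sums equalised, gave values recorded as log-two fold change in thermal stability against solvent controls, from duplicates.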

Compound in a further assay: O=C(CCCCCCC(=O)Nc1ccccc1)NO [vorinostat]
In outline: as §1

Compound in a further assay: O=C(O)c1ccc2c(c1)nc(Nc1cccc(Cl)c1)c1ccncc12 [silmitasertib]
The method, boiled down: as §1

Compound in assay [2]: O=C1NC(=O)C(c2cnc3ccccn23)=C1c1cn2c3c(cc(F)cc13)CN(C(=O)N1CCCCC1)CC2
In outline:
as §1

Compound in the next assay: c1cn2cc(-c3ccc4cn[nH]c4c3)nc(Nc3ccc(N4CCOCC4)cc3)c2n1 [entospletinib]
The method, boiled down: as §1

For the target PEAK1 (UniProt Q9H792), the log2 fold change in assay [1] was inactive: 0.068; with vorinostat, inactive: -0.054; with silmitasertib it was inactive: -0.224; in assay [2], inactive: -0.029.

Take PCGF6 (UniProt Q9BYE7): the log2 fold change in assay [1] is inactive: 0.069; in the assay with vorinostat, inactive: -0.288; in the assay with silmitasertib, inactive: 0.028; in assay [2], inactive: -0.045.

Turning to PDCD10 (UniProt Q9BUL8), the log2 fold change in assay [1] was inactive: -0.009; with vorinostat, inactive: 0.158; with silmitasertib it was inactive: -0.001; in assay [2] it was inactive: -0.037; with entospletinib, inactive: 0.011.

In the case of PAXIP1 (UniProt Q6ZW49), the log2 fold change in assay [1] was inactive: -0.001; in the assay with vorinostat it was inactive: -0.146; with silmitasertib, inactive: 0.027; in assay [2] it was inactive: -0.089; with entospletinib, inactive: -0.038.

Take PFN1 (UniProt P07737): the log2 fold change in assay [1] was inactive: -0.006; in the assay with vorinostat, inactive: 0.083; in the assay with silmitasertib, inactive: -0.004; in assay [2] it was inactive: -0.014; in the assay with entospletinib it was inactive: 0.006.

As to PCIF1 (UniProt Q9H4Z3), the log2 fold change in assay [1] was inactive: -0.018; with vorinostat it was inactive: -0.011; with silmitasertib, inactive: 0.112; in assay [2], inactive: 0.036; with entospletinib, inactive: 0.085.

As for PDXP (UniProt Q96GD0), the log2 fold change was inactive: 0.008 in assay [1]; inactive: 0.118 in the assay with vorinostat; inactive: 0.026 with silmitasertib; inactive: 0.017 in assay [2]; inactive: -0.028 with entospletinib.

Take PEX14 (UniProt O75381): the log2 fold change is inactive: -0.002 in assay [1]; inactive: 0.019 with vorinostat; inactive: 0.019 with silmitasertib; inactive: -0.029 in assay [2]; inactive: 0 with entospletinib.

PCID2 (UniProt Q5JVF3): the log2 fold change in assay [1] is inactive: 0.003; with vorinostat, inactive: -0.235; in the assay with silmitasertib, inactive: 0.011; in assay [2] it was inactive: -0.009; in the assay with entospletinib it was inactive: -0.023.

Turning to PCMTD2 (UniProt Q9NV79), the log2 fold change is inactive: -0.216 in assay [1]; inactive: -0.119 with vorinostat; inactive: -0.006 in the assay with silmitasertib; inactive: -0.045 in assay [2]; inactive: 0.168 in the assay with entospletinib.

As to PFDN4 (UniProt Q9NQP4), the log2 fold change was inactive: 0.011 in assay [1]; inactive: 0.105 with vorinostat; inactive: 0.005 with silmitasertib; inactive: 0.03 in assay [2]; inactive: -0.037 with entospletinib.

Consider PDSS2 (UniProt Q86YH6), for which the log2 fold change is inactive: -0.079 in assay [1], inactive: 0.011 with vorinostat, inactive: 0.029 with silmitasertib and inactive: 0.044 in assay [2].

In the case of PER2 (UniProt O15055), in assay [1], the log2 fold change was inactive: -0.032.

In the case of PFDN2 (UniProt Q9UHV9), the log2 fold change in assay [1] is inactive: -0.049; with vorinostat it was inactive: 0.098; with silmitasertib, inactive: 0.015; in assay [2] it was inactive: -0.068; with entospletinib it was inactive: 0.007.

On to PBLD (UniProt P30039), for which the log2 fold change is inactive: 0.224 in assay [1]; inactive: 0.044 in the assay with vorinostat; inactive: -0.03 with silmitasertib; inactive: 0.037 in assay [2]; inactive: 0.004 in the assay with entospletinib.

PEBP1 (UniProt P30086): the log2 fold change in assay [1] is inactive: -0.012; with vorinostat it was inactive: 0.156; with silmitasertib it was inactive: -0.008; in assay [2], inactive: 0.02; with entospletinib, inactive: 0.008.

As for PCBD2 (UniProt Q9H0N5), the log2 fold change in assay [1] was inactive: 0.008; with vorinostat, inactive: 0.034; in the assay with silmitasertib, inactive: 0.01; in assay [2], inactive: -0.006; in the assay with entospletinib, inactive: 0.003.

For the target PEX2 (UniProt P28328), the log2 fold change is inactive: -0.055 in assay [1], inactive: -0.25 in the assay with vorinostat, inactive: 0.042 with silmitasertib and inactive: 0.043 in assay [2].

On to PDS5B (UniProt Q9NTI5), for which the log2 fold change in assay [1] is inactive: 0; in the assay with vorinostat, inactive: -0.216; with silmitasertib it was inactive: 0.037; in assay [2], inactive: 0.031; in the assay with entospletinib, inactive: 0.023.

On to PCBP2 (UniProt H3BRU6), for which the log2 fold change in assay [1] was inactive: 0.139; in the assay with vorinostat it was active: -0.662; with silmitasertib, inactive: -0.102; in assay [2], inactive: -0.053; in the assay with entospletinib it was inactive: 0.061.

As to PDE8A (UniProt O60658), the log2 fold change is inactive: -0.113 in assay [1], inactive: -0.505 in the assay with vorinostat, inactive: -0.04 with silmitasertib and inactive: 0.019 in assay [2].

Turning to PGAM5 (UniProt Q96HS1), the log2 fold change in assay [1] is inactive: -0.013; with vorinostat, inactive: -0.008; in the assay with silmitasertib, inactive: -0.008; in assay [2] it was inactive: -0.035; with entospletinib, inactive: 0.005.

Consider PDLIM7 (UniProt Q9NR12), for which the log2 fold change was inactive: -0.01 in assay [1]; inactive: 0.075 in the assay with vorinostat; inactive: 0.001 with silmitasertib; inactive: 0.016 in assay [2]; inactive: 0.003 with entospletinib.

On to PCM1 (UniProt Q15154), for which the log2 fold change was inactive: 0.018 in assay [1]; inactive: -0.045 with vorinostat; inactive: 0.032 with silmitasertib; inactive: 0.015 in assay [2]; inactive: 0 with entospletinib.

In the case of PFKFB4 (UniProt Q16877), the log2 fold change in assay [1] was inactive: 0.007; with vorinostat, active: -0.369; in the assay with silmitasertib, inactive: 0; in assay [2] it was inactive: -0.031; in the assay with entospletinib, inactive: 0.051.

For the target PCK1 (UniProt P35558), the log2 fold change in assay [1] was inactive: 0.201.

With PGAM4 (UniProt Q8N0Y7), the log2 fold change was inactive: 0.008 in assay [1]; inactive: 0.149 with vorinostat; inactive: -0.029 with silmitasertib; inactive: 0.005 in assay [2]; inactive: 0.028 with entospletinib.

The values above are taken from the supplement of paper PMC10849652.
